# According to publication PMC11729909:
# Molecular target: ATR (endogenous) [human (endogenous in HEK293T and H1975)]
# Assay: co-immunoprecipitation (IP: FLAG) and immunoblotting
# Conditions: HEK293T cells; parent: 1
row,ratio to parent,Substance
1,0.56,"FLAG-tagged FOXP1 (wild type, full length) mutant R465G [human] / ATR (endogenous) [human (endogenous in HEK293T and H1975)] chain 1 R465G"
2,0.3,"FLAG-tagged FOXP1 (wild type, full length) mutant R465T [human] / ATR (endogenous) [human (endogenous in HEK293T and H1975)] chain 1 R465T"
3,0.72,"FLAG-tagged FOXP1 (wild type, full length) mutant R514C [human] / ATR (endogenous) [human (endogenous in HEK293T and H1975)] chain 1 R514C"
4,0.66,"FLAG-tagged FOXP1 (wild type, full length) mutant R514H [human] / ATR (endogenous) [human (endogenous in HEK293T and H1975)] chain 1 R514H"
